PubChem BioAssay AID1224830 – NIAID | 2016

Test: 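Genes whose knock-down alters the TNF-alpha reporter response to LPS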 (primary screen)
Cell system: human THP-1 monocytic leukaemia cells, TNF dual-luciferase reporter clone, PMA-differentiated to macrophage-like cells
Reagent: siRNA pool against human genes, 50 nM
Timing: LPS for 4 h, given about 3 days after siRNA transfection
Conditions: bacterial LPS (TLR4 ligand), 10 ng/ml
Detection: 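Ratio of firefly to renilla light, scaled to the plate median and expressed as a robust z-score per replicate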
Direction: TNF reporter robust z-score: higher = stronger TNF reporter response to LPS
Active means: 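Each well counts as active if its z-score is over 2.8 or under -1.5; controls are left without a call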
The whole screen tested about 18,000 reagents; shown is a random part of them. Over the whole deposit, about 2,900 (16%) got an active call. 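Calls are made per well; low scores hint the gene aids the LPS response, high scores that it dampens it.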 Unmarked entries are inactive. Reagents against one gene are numbered here. Repeated entries: four replicate wells of each siRNA pool.

With knock-down of HOXD11 (homeobox D11), the screen gave TNF reporter robust z-score -0.77.
Against HOXD11 (homeobox D11), the entry reads TNF reporter robust z-score -0.37.
Against HOXD11 (homeobox D11) the deposit lists TNF reporter robust z-score 0.42.
For HOXD11 (homeobox D11), the values are TNF reporter robust z-score -0.35.
Against RHOXF1 (Rhox homeobox family member 1) the deposit lists TNF reporter robust z-score -0.24.
Depletion of RHOXF1 (Rhox homeobox family member 1) came out at: TNF reporter robust z-score 0.21.
Depletion of RHOXF1 (Rhox homeobox family member 1) came out at: TNF reporter robust z-score 0.05.
Against RHOXF1 (Rhox homeobox family member 1) the deposit lists TNF reporter robust z-score 0.12.
After knock-down of LCOR (ligand dependent nuclear receptor corepressor) #1, the screen gave TNF reporter robust z-score 1.28.
Against LCOR (ligand dependent nuclear receptor corepressor) #1, the entry reads TNF reporter robust z-score 0.89.
Against LCOR (ligand dependent nuclear receptor corepressor) #1 the deposit lists TNF reporter robust z-score 1.5.
With knock-down of LCOR (ligand dependent nuclear receptor corepressor) #1 the results were TNF reporter robust z-score 2.84 (active).
For LCOR (ligand dependent nuclear receptor corepressor) #2, the values are TNF reporter robust z-score -1.53 (active).
After knock-down of LCOR (ligand dependent nuclear receptor corepressor) #2, the screen gave TNF reporter robust z-score -1.06.
LCOR (ligand dependent nuclear receptor corepressor) #2 scored TNF reporter robust z-score -0.8.
Against LCOR (ligand dependent nuclear receptor corepressor) #2 the deposit lists TNF reporter robust z-score -0.39.
LBP (lipopolysaccharide binding protein) showed TNF reporter robust z-score -0.82.
For LBP (lipopolysaccharide binding protein), the values are TNF reporter robust z-score -0.01.
With knock-down of LBP (lipopolysaccharide binding protein), the screen gave TNF reporter robust z-score -0.24.
Depletion of LBP (lipopolysaccharide binding protein) gave: TNF reporter robust z-score 0.33.

Entries listed so far with an active call, once more:
LCOR (ligand dependent nuclear receptor corepressor) #1 → TNF reporter robust z-score: 2.84 (active)
LCOR (ligand dependent nuclear receptor corepressor) #2 → TNF reporter robust z-score: -1.53 (active)
